In the supplement of paper PMC10849652:
This is one part of the list.

Protein sequences, listed by entry. Tags and fused reporters are not part of them. Lines headed by an entry give the natural chain unless they say otherwise; changes in a name come on top.
UniProt Q8TAV0: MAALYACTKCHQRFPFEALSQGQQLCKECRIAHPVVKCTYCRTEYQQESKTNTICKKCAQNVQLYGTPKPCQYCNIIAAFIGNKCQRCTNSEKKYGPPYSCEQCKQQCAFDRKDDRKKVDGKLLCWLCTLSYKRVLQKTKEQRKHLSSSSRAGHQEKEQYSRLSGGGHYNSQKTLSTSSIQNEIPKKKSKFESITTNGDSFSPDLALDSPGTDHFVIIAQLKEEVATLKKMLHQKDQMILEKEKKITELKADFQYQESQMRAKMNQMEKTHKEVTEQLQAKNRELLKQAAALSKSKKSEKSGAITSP
UniProt Q9BYI3: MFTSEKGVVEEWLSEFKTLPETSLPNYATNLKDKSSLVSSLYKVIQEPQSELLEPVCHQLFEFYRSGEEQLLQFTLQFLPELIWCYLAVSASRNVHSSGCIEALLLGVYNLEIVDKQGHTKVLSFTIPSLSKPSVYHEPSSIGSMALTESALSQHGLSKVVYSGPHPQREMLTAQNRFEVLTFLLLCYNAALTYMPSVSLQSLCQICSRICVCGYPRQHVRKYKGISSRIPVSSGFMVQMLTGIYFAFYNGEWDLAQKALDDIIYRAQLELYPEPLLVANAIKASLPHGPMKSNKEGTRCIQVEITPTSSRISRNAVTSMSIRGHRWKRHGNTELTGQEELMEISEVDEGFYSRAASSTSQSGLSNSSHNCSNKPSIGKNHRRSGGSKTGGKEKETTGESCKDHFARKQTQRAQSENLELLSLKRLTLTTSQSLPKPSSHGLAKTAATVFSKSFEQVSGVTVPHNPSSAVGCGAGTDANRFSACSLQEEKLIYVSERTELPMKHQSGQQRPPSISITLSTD
UniProt Q96PV7: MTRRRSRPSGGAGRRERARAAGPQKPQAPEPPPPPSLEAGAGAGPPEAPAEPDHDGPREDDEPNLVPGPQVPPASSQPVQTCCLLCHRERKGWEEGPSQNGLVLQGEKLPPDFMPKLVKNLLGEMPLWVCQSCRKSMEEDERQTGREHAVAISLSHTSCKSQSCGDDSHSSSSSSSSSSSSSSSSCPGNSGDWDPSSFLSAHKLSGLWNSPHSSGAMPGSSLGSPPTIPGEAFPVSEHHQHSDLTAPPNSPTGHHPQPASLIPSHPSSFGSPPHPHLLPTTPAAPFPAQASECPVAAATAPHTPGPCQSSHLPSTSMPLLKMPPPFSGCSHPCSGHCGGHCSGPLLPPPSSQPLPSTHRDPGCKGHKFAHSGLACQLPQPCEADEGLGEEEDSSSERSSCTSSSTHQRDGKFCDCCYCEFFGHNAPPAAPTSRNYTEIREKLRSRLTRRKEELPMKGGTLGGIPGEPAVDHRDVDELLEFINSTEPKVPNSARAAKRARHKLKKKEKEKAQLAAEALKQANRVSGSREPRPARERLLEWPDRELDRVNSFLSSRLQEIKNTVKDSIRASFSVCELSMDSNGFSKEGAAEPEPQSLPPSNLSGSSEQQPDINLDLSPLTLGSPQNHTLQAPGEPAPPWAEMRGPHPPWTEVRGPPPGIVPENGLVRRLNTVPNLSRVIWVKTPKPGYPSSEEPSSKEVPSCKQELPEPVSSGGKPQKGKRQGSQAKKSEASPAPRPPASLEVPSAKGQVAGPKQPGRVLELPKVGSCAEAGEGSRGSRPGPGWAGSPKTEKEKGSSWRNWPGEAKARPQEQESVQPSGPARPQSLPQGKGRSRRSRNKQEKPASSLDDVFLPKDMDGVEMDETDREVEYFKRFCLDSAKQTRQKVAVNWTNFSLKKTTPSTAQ
UniProt Q8N128: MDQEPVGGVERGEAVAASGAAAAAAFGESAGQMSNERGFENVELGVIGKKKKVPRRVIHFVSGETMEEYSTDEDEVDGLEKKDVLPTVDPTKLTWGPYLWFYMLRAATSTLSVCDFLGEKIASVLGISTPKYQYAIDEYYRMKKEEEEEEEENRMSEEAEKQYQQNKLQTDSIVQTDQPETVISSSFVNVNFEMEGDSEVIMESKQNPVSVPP
UniProt O94905: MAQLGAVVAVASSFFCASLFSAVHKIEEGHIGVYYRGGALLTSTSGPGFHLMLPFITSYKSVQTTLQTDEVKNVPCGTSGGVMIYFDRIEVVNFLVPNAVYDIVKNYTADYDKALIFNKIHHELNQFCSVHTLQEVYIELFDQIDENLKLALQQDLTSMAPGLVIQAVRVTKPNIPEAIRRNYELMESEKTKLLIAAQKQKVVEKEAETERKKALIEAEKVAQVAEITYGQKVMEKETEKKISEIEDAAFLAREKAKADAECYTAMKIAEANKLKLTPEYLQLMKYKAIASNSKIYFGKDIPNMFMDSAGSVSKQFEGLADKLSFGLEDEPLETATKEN
UniProt Q15910, whole entry, looked up: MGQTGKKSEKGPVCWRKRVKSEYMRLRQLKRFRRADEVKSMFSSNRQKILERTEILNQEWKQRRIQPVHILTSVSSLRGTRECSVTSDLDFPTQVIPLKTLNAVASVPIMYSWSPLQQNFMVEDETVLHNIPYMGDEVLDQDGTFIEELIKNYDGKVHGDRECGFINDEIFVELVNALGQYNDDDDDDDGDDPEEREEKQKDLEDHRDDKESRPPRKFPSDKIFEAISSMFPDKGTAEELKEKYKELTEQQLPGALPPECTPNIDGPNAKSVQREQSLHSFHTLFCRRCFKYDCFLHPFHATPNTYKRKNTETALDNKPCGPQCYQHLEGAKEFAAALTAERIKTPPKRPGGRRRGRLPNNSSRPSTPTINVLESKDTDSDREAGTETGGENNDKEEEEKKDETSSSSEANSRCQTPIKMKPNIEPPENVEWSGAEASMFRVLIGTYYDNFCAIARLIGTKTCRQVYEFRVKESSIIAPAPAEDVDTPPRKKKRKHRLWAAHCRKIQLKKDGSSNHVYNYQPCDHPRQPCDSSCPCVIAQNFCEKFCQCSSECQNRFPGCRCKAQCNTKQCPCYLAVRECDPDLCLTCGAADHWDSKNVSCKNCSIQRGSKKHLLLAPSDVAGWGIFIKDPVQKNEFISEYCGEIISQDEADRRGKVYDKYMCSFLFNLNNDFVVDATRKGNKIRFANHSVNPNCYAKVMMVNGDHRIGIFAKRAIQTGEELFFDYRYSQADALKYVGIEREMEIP
UniProt Q6IPR1: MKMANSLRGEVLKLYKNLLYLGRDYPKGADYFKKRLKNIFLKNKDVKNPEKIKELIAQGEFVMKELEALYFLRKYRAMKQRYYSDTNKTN
UniProt Q9UQ84: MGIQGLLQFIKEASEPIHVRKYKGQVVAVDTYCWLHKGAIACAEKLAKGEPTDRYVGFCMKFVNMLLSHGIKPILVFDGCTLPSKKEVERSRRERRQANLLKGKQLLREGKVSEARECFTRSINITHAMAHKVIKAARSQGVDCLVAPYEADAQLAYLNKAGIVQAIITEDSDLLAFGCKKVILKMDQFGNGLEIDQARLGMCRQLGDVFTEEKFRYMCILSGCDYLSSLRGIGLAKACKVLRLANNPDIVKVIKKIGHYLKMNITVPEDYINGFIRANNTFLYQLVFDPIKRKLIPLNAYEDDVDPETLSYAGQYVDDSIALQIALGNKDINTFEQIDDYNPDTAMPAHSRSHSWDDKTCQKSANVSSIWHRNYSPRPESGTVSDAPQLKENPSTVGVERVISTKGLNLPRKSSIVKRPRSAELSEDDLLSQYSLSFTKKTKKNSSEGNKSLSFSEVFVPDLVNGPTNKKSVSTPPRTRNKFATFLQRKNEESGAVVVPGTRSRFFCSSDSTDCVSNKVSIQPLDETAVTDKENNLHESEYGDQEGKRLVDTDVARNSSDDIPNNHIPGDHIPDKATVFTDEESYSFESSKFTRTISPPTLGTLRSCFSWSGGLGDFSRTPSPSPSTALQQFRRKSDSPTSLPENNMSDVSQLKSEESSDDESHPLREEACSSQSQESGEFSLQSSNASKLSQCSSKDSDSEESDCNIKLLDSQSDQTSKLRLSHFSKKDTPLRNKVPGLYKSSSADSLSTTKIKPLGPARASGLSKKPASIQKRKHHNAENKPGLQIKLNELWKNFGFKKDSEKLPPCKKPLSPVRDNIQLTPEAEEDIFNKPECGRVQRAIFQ
UniProt Q9H4H8: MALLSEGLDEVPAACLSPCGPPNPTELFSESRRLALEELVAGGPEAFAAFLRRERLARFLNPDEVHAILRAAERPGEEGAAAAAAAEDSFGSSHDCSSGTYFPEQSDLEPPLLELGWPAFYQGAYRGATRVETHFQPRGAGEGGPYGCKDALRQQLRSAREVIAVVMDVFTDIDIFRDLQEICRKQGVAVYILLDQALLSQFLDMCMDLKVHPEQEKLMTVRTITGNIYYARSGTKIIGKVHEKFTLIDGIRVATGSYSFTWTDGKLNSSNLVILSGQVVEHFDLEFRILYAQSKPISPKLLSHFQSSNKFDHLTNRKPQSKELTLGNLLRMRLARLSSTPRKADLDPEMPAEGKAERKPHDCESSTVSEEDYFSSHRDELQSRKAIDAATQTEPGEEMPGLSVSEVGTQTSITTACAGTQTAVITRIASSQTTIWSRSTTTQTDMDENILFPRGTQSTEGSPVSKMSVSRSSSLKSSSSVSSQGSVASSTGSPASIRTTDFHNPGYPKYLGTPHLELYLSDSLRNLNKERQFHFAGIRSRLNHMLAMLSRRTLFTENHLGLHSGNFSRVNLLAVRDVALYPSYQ
UniProt Q6P1L5: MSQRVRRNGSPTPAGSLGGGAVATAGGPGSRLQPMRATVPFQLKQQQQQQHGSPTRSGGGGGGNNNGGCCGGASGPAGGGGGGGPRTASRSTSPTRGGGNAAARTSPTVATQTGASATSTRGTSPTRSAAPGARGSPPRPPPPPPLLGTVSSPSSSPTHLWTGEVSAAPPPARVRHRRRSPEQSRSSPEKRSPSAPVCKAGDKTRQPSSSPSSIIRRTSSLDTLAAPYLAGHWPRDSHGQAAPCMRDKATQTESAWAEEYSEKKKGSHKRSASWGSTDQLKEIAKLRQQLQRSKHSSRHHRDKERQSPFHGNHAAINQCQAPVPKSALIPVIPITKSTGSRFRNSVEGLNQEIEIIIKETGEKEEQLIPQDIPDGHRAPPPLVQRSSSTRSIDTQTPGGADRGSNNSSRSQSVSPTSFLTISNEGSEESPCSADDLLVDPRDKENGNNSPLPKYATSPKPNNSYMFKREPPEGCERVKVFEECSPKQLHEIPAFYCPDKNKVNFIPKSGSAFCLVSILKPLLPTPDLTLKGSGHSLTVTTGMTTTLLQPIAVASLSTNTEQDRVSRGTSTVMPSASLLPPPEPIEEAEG
UniProt Q7Z309: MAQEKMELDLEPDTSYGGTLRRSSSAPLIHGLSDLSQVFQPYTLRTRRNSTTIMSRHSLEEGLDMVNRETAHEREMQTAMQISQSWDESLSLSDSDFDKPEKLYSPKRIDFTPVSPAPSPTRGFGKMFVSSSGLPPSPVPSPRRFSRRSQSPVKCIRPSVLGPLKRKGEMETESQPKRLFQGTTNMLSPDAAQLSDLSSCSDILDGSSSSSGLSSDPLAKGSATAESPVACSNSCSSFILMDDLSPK
UniProt O60645: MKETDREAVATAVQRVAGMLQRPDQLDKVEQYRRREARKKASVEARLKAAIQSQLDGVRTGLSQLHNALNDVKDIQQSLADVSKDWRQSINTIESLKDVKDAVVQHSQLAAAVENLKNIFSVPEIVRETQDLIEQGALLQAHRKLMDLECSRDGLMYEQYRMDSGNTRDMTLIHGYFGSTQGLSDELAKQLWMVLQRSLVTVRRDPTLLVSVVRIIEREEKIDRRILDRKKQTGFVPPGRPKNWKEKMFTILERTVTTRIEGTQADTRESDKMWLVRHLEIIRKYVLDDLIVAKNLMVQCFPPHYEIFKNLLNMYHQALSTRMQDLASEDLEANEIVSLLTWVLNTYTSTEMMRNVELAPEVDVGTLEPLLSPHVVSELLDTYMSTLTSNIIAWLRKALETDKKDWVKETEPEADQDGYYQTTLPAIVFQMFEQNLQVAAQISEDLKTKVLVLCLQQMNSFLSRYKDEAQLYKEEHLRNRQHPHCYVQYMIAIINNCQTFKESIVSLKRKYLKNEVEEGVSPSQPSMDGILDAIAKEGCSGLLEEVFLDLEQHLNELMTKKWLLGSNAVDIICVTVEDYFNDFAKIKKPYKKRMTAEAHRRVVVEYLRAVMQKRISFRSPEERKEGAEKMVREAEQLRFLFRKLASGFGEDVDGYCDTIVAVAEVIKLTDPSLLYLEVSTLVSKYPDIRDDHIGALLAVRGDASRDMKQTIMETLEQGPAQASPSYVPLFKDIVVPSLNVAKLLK
UniProt Q96KR6: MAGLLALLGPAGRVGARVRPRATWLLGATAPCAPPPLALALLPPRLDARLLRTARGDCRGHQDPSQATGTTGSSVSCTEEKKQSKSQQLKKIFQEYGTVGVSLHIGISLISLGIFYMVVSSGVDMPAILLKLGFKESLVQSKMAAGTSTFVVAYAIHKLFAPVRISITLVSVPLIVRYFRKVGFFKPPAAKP
UniProt Q9NSI2: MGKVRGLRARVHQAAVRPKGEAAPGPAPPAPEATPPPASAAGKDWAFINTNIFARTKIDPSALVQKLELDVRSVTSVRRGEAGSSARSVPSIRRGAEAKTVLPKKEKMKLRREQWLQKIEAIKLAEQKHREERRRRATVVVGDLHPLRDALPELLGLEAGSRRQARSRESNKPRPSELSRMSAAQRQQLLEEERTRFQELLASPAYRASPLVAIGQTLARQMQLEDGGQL

Compound: O=C(O)c1ccc2c(c1)nc(Nc1cccc(Cl)c1)c1ccncc12 [silmitasertib]
Test: log2 fold change, soluble protein after heating vs DMSO (PISA); higher = thermal stabilisation; K562 lysate, 10 uM; active = over 0.2 and 3.5 SD of the protein, either way, in both replicates (recomputed)
Summary of the method: (§1)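 K562 pellets were dounce-homogenised in PBS pH 7.4 with 1 mM MgCl2, and the crude extract at 1 mg/mL protein was treated with 10 μM compound for 30 min. Aliquots were heated for 3 min across 48°C-58°C, pooled, and brought to 0.5% NP-40 at 4°C; soluble protein was the supernatant after 21,000xg for 90 min. Soluble protein was quantified by TMTpro 16plex LC-MS/MS with channel sums equalised, and reported as log2 fold change in thermal stability against DMSO controls, with values from duplicates.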

log2 fold change, inactive:
EXOSC8 (UniProt Q96B26) 0.014
FAM32A (UniProt Q9Y421) -0.015
FAM76A isoform 3 (UniProt Q8TAV0) 0.024
FAM126A (UniProt Q9BYI3) 0.112
EXTL3 (UniProt O43909) 0.055
ETFA (UniProt P13804) -0.006
EYA3 (UniProt Q99504) 0.018
FAM193B (UniProt Q96PV7) 0.047
FAM20B (UniProt O75063) -0.003
FAM177A1 isoform 2 (UniProt Q8N128) -0.008
FAM192A (UniProt Q9GZU8) 0.011
F2RL3 (UniProt Q96RI0) -0.028
ERLIN2 (UniProt O94905) 0.019
FAM204A (UniProt Q9H8W3) -0.095
FADS1, A0A0A0MR51 -0.003
EZH2 isoform 2 (UniProt Q15910) -0.031
FAM193A, A0A1B0GVL4 0.144
EXOC4 (UniProt Q96A65) 0.041
EXOSC3 (UniProt Q9NQT5) 0.053
FADD (UniProt Q13158) -0.068
FAHD2A (UniProt Q96GK7) 0.001
EXD2 (UniProt Q9NVH0) 0.136
ETV4 (UniProt P43268) -0.227
ETFRF1 (UniProt Q6IPR1) -0.043
EXO1 (UniProt Q9UQ84) 0.17
FAM83D (UniProt Q9H4H8) 0.031
EXOSC7 (UniProt Q15024) 0.004
FAM117B (UniProt Q6P1L5) 0
EXOC8 (UniProt Q8IYI6) 0.006
FAM122B isoform 3 (UniProt Q7Z309) -0.04
FAM185A (UniProt Q8N0U4) -0.077
FAM162A (UniProt Q96A26) -0.033
F11R (UniProt Q9Y624) -0.005
EXOC3 (UniProt O60645) 0.03
FAM210B (UniProt Q96KR6) 0.016
FAM117A (UniProt Q9C073) 0.018
FAM207A (UniProt Q9NSI2) -0.036

Compound: O=C1NC(=O)C(c2cnc3ccccn23)=C1c1cn2c3c(cc(F)cc13)CN(C(=O)N1CCCCC1)CC2
Test: as above
Summary of the method: as §1

log2 fold change, inactive:
EXOSC8 (UniProt Q96B26) -0.01
FAM32A (UniProt Q9Y421) -0.006
FAM76A isoform 3 (UniProt Q8TAV0) -0.075
FAM126A (UniProt Q9BYI3) 0.11
EXTL3 (UniProt O43909) -0.062
ETFA (UniProt P13804) 0.01
EYA3 (UniProt Q99504) 0.018
FAM193B (UniProt Q96PV7) 0.018
FAM20B (UniProt O75063) -0.019
FAM177A1 isoform 2 (UniProt Q8N128) 0.04
FAM192A (UniProt Q9GZU8) -0.05
ERLIN2 (UniProt O94905) -0.005
FAM204A (UniProt Q9H8W3) 0.044
FADS1, A0A0A0MR51 -0.046
EZH2 isoform 2 (UniProt Q15910) 0.026
FAM193A, A0A1B0GVL4 -0.038
EXOC4 (UniProt Q96A65) -0.022
EXOSC3 (UniProt Q9NQT5) -0.044
FADD (UniProt Q13158) 0.065
FAHD2A (UniProt Q96GK7) 0.011
EXD2 (UniProt Q9NVH0) 0.04
ETV4 (UniProt P43268) -0.061
ETFRF1 (UniProt Q6IPR1) 0.051
EXO1 (UniProt Q9UQ84) -0.037
FAM83D (UniProt Q9H4H8) -0.004
EXOSC7 (UniProt Q15024) 0.015
FAM117B (UniProt Q6P1L5) 0.032
EXOC8 (UniProt Q8IYI6) 0.004
FAM122B isoform 3 (UniProt Q7Z309) 0.007
FAM185A (UniProt Q8N0U4) 0.068
FAM162A (UniProt Q96A26) 0.002
F11R (UniProt Q9Y624) -0.035
EXOC3 (UniProt O60645) 0.002
FAM210B (UniProt Q96KR6) -0.051
FAM117A (UniProt Q9C073) -0.004
FAM207A (UniProt Q9NSI2) -0.057
